# According to paper PMC12965321:
# Protein sequences, listed by entry. Tags and fused reporters are not part of them.
# UniProt P35820: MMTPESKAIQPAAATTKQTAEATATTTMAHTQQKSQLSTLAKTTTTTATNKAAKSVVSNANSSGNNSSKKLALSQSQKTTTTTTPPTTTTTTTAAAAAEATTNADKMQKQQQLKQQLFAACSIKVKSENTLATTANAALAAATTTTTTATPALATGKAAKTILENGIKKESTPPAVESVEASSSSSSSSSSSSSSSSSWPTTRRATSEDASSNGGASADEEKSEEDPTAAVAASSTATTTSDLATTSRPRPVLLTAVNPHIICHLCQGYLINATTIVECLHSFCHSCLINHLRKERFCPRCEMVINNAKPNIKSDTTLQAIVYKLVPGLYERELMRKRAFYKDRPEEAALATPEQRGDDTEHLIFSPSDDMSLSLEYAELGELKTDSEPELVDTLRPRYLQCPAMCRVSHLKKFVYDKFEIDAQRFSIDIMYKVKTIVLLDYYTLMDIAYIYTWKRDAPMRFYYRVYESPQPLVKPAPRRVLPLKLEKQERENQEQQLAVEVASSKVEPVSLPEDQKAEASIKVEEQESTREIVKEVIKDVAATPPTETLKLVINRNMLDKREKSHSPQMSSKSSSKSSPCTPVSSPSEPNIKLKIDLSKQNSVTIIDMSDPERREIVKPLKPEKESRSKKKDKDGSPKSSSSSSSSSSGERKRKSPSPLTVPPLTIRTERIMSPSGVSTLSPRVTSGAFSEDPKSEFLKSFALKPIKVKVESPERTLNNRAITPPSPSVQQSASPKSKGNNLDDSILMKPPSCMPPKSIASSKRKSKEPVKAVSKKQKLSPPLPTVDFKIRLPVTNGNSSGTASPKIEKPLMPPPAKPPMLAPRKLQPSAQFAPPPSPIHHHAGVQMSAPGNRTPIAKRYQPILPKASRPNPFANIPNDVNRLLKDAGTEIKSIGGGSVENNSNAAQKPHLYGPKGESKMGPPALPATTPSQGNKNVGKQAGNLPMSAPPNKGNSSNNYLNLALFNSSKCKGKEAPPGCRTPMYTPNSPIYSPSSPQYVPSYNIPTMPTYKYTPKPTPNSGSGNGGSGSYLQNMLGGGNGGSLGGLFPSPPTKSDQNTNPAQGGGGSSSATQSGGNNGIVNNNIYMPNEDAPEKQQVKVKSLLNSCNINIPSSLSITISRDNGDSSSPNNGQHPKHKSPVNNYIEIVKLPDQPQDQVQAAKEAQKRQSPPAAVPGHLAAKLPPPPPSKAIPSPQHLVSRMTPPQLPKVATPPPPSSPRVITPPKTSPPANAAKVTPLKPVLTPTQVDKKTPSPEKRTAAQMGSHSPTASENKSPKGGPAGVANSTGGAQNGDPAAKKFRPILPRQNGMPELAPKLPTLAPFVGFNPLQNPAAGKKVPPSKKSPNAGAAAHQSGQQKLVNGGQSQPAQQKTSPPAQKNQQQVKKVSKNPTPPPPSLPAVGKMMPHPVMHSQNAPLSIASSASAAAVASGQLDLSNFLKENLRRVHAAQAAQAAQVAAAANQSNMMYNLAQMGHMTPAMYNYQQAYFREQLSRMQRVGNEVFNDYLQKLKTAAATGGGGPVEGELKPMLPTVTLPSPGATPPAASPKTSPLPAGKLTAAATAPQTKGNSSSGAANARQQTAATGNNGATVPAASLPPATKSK
# Results are given in words; binding and its absence hold for the method and conditions named. Binding seen in cells or lysates may run through a third protein. Some entries that bind do so weakly or less than the wild type.
# T1: RING1 [the product of Sex combs extra (Sce) gene] (D. melanogaster (endogenous in embryos)) (UniProt Q9VB08)
# T1 sequence: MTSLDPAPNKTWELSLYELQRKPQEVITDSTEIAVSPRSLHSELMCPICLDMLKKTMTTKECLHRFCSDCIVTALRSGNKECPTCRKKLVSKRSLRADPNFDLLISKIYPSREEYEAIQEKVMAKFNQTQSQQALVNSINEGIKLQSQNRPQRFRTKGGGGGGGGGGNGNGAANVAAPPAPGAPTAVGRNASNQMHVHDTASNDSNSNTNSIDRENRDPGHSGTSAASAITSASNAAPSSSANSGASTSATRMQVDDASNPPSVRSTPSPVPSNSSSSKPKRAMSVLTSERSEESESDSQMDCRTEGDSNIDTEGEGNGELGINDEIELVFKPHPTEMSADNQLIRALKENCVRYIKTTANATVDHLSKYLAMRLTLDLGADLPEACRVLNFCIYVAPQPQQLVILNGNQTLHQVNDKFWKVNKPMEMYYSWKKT
# Molecular target: T1, RING1 [the product of Sex combs extra (Sce) gene] (D. melanogaster (endogenous in embryos))
# Experiment: co-IP; total nuclear protein extracts of embryos (wild type; Siesta-Strep; RYBP-KO, Siesta-Strep), dialysed against 25 mM Hepes-KOH pH 7.6, 0.1 M KCl; anti-RING1 cross-linked to Dynabeads or Strep-Tactin Sepharose, 0.02% NP-40, overnight at 4°C; Western blot
row,binding,Molecule
1,binds,Posterior sex combs (Psc) (from UniProt P35820 1-1601)
2,binds,"Polycomb (Pc) (protein, UniProt P26017 1-390) MTGRGKGSKGKLGRDNATDDPVDLVYAAEKIIQKRVKKGVVEYRVKWKGWNQRYNTWEPEVNILDRRLIDIYEQTNKSSGTPSKRGIKKKEKEPDPEPESEEDEYTFTENDVDTHQATTSSATHDKESKKEKKHHHHHHHHHHIKSERNSGRRSESPLTHHHHHHHHESKRQRIDHSSSSNSSFTHNSFVPEPDSNSSSSEDQPLIGTKRKAEVLKESGKIGVTIKTSPDGPTIKPQPTQQVTPSQQQPFQDQQQAEKIASEAATQLKSEQQATPLATEAINTTPAESGAEEEEVANEEGNQQAPQVPSENNNIPKPCNNLAINQKQPLTPLSPRALPPRFWLPAKCNISNRVVITDVTVNLETVTIRECKTERGFFRERDMKGDSSPVA"
